# The supplement of paper PMC7666118
# Amino acid sequences for entries named in this document (tags omitted). A change or cut given only in a name is not applied to a line headed by its entry.
# UniProt Q9NR82, whole entry: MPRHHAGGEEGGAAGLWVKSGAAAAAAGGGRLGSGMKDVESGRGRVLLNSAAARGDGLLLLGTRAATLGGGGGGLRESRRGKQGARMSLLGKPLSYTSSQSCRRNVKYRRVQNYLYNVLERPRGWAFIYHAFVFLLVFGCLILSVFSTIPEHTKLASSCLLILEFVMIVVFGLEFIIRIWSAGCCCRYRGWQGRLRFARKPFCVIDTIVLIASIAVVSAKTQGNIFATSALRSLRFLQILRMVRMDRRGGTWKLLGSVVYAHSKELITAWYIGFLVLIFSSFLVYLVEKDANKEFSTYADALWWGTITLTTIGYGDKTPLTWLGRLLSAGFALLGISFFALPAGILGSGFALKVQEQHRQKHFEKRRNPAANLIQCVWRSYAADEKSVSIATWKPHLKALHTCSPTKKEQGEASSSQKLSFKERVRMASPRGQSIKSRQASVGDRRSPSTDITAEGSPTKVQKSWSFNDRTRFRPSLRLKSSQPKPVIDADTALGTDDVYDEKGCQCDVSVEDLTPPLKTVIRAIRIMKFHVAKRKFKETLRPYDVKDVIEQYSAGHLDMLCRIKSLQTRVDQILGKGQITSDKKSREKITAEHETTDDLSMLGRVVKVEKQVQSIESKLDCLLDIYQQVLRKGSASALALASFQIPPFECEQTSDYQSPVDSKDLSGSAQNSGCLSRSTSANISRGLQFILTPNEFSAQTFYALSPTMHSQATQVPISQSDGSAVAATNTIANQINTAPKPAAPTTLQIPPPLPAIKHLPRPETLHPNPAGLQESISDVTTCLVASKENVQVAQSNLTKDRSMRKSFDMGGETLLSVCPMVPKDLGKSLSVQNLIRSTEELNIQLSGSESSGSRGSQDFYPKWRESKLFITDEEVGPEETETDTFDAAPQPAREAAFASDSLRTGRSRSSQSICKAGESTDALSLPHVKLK
# UniProt Q9UKS7: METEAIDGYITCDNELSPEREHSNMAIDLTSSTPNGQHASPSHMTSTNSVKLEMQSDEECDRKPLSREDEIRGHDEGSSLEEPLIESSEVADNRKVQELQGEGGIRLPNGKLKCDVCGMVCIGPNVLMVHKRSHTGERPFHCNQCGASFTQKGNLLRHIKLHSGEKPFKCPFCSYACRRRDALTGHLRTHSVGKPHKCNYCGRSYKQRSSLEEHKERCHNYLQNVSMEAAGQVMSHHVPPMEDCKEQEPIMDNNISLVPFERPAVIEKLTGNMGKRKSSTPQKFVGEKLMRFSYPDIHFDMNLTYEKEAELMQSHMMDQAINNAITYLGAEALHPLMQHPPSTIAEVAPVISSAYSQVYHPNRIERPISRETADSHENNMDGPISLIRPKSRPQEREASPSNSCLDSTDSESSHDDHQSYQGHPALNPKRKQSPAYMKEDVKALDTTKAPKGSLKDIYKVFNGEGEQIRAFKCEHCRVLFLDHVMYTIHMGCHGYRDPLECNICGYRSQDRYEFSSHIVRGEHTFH
# UniProt Q9NZL4: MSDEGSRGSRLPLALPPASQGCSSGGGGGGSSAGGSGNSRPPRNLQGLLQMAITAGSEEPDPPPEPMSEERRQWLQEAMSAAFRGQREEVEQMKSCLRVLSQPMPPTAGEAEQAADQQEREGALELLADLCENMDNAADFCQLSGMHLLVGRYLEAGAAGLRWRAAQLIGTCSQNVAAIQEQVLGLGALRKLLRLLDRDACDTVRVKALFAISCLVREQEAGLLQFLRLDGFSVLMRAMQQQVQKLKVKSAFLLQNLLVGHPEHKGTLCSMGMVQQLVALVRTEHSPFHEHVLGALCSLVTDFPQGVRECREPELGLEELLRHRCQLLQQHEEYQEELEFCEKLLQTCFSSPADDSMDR
# UniProt O95757: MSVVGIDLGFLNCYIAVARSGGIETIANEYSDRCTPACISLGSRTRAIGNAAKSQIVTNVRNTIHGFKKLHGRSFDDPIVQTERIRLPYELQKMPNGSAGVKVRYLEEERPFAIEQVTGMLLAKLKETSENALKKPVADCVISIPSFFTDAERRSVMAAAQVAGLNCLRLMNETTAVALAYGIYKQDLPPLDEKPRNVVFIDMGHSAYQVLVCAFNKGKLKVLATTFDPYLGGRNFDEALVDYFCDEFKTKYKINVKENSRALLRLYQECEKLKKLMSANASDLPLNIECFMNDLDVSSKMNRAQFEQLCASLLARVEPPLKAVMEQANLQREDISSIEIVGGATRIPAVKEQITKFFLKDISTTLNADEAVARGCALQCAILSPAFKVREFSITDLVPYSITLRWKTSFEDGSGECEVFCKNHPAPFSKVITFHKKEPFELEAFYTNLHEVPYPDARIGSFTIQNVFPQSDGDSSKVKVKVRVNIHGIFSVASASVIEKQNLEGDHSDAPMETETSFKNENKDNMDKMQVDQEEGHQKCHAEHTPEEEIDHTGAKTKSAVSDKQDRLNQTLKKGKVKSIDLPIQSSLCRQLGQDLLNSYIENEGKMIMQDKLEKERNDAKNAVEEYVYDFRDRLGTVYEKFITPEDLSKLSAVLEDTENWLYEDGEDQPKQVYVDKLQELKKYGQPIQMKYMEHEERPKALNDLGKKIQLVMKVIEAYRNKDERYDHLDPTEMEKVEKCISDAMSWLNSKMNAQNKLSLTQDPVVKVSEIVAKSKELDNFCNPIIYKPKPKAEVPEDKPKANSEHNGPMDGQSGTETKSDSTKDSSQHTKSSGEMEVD
# UniProt Q969P0: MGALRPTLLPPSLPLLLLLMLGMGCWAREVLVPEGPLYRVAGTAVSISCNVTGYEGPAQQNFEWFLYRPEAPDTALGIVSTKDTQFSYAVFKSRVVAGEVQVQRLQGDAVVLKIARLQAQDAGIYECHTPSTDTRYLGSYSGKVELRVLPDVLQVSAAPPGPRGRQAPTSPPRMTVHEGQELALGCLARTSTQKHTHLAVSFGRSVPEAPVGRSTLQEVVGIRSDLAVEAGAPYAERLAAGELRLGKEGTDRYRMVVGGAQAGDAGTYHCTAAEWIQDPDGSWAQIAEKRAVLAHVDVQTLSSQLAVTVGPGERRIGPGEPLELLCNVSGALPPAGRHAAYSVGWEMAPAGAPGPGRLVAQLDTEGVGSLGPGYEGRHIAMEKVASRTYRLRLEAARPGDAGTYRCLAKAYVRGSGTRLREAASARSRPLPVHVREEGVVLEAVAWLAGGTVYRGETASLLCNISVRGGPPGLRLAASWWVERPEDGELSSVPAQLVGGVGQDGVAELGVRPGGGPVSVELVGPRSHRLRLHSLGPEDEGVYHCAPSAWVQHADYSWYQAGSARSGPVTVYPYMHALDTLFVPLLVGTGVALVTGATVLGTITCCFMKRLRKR
# UniProt P05161, whole entry: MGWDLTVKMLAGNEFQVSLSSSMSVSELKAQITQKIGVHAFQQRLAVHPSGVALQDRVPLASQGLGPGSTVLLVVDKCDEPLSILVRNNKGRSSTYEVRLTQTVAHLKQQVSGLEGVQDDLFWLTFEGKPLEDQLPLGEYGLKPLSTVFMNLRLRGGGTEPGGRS
# UniProt P41252: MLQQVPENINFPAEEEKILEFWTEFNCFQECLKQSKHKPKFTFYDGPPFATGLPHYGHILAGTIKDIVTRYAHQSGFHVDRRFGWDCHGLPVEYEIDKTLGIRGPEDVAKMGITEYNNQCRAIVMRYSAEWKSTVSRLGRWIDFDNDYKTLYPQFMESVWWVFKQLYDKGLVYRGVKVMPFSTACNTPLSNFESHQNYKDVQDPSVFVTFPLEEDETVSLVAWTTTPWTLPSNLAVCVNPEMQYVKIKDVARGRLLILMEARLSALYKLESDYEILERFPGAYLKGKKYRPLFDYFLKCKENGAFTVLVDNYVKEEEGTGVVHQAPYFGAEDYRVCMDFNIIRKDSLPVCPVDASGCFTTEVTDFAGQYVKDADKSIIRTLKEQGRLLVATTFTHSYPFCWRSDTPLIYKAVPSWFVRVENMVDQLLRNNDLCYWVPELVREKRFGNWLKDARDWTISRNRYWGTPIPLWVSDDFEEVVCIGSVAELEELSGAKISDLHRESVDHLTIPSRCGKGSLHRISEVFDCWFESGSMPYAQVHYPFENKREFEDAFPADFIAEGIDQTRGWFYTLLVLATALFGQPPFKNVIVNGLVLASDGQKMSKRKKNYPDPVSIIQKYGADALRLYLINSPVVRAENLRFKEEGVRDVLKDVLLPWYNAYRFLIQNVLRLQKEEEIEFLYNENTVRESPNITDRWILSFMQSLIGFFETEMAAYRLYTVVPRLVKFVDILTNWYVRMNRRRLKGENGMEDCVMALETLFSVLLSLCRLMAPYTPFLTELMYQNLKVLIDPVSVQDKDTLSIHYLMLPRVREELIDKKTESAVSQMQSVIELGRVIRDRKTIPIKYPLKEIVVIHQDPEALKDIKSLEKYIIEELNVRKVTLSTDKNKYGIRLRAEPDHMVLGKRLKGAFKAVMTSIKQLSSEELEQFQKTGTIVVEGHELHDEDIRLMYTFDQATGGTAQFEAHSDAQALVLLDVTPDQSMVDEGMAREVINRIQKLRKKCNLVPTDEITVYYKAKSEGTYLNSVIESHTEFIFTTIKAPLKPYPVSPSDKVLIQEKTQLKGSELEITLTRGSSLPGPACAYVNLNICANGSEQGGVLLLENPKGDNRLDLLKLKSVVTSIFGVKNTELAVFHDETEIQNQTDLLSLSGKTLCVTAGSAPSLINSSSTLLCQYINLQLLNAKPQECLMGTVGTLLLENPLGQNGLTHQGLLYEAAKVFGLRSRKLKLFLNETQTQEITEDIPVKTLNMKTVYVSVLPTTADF
# UniProt Q15397: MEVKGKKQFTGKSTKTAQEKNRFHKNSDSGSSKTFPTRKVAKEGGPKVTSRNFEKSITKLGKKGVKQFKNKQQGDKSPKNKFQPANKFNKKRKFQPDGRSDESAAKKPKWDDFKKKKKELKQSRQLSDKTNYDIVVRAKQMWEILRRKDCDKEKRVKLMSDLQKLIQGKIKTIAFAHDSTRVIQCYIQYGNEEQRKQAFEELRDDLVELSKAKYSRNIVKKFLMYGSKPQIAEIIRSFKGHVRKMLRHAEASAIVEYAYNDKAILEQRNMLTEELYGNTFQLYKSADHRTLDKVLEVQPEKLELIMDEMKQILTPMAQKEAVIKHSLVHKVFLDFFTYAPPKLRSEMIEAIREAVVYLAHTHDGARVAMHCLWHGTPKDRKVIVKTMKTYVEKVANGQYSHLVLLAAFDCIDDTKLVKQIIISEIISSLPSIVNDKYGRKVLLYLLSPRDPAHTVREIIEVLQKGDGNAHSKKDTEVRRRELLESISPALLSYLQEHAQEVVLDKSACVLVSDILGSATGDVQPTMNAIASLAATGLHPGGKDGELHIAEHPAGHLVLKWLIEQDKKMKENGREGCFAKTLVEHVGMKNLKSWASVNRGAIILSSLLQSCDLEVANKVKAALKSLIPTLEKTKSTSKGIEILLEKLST
# UniProt Q9UL03, whole entry: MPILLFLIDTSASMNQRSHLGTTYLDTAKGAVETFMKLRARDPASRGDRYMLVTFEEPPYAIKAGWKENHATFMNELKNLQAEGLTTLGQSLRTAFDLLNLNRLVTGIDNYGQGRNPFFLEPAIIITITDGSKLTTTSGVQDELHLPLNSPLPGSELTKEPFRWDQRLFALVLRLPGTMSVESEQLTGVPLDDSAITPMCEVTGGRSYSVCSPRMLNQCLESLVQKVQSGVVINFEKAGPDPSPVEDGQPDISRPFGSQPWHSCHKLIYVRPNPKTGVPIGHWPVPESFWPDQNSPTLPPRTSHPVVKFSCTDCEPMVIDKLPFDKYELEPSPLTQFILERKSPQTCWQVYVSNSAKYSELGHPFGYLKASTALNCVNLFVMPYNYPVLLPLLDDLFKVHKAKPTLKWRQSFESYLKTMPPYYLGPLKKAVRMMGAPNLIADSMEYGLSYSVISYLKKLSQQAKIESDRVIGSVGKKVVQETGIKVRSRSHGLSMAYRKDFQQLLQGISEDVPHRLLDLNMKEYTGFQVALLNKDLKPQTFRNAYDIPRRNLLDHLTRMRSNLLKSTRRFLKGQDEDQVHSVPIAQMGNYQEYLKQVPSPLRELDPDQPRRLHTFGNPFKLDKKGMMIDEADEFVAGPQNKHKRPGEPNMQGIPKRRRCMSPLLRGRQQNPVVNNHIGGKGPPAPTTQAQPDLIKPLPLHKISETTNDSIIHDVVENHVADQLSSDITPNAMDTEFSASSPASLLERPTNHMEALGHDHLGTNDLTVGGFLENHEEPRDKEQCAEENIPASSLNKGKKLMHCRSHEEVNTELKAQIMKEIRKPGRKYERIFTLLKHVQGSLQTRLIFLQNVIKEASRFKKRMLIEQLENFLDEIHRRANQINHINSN
# Some of the results follow.
# Compound: COc1ccc(Cn2ccc3ccc(C(=O)NO)cc32)cc1
# Experiment: dose-dependent thermal stabilisation call (2D-TPP, DLPTP, 10% FDR) (binary (1 = stabilised)); higher = stabilised by the compound
# Details: system: HL-60 intact cells; concentration range 0.04-10 µM
row,Target,dose-dependent thermal stabilisation call
1,KCNQ5 (UniProt Q9NR82),inactive: 0
2,IPO9 (UniProt Q96P70),inactive: 0
3,IKZF2 (UniProt Q9UKS7),inactive: 0
4,HSPBP1 (UniProt Q9NZL4),inactive: 0
5,HSPA4L (UniProt O95757),inactive: 0
6,IGSF8 (UniProt Q969P0),inactive: 0
7,ISG15 (UniProt P05161),inactive: 0
8,IARS (UniProt P41252),inactive: 0
9,KIAA0020 (UniProt Q15397),inactive: 0
10,IRF3 (UniProt Q14653),inactive: 0
11,HSD17B4 (UniProt P51659),inactive: 0
12,INTS6 (UniProt Q9UL03),inactive: 0

# Two records drawn at random from the list so far, as already listed:
row,Target,dose-dependent thermal stabilisation call
3,IKZF2 (UniProt Q9UKS7),inactive: 0
11,HSD17B4 (UniProt P51659),inactive: 0
